In the supplement of paper PMC12067093, “Discovery and optimisation of a covalent ligand for TRIM25 and its application to targeted protein ubiquitination” (Chemical Science, 2025):
The list shows a part of the results.

Sequences of proteins named here, by UniProt entry; tags and fusion partners are left off. A change or cut given only in a name is not applied to a line headed by its entry.
UniProt Q5TFE4: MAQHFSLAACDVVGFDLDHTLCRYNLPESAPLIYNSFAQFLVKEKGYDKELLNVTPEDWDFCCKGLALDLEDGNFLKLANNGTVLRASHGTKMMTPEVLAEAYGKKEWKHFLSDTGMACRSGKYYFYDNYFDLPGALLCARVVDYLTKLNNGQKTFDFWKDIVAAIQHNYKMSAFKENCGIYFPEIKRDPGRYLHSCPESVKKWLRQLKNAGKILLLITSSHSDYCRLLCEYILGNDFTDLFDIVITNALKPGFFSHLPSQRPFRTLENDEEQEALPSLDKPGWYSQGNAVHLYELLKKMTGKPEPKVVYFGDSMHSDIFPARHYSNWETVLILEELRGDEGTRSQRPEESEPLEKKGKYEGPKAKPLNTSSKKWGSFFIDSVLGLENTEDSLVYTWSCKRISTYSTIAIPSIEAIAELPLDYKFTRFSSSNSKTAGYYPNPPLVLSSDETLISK
UniProt Q86UT6, whole entry, looked up: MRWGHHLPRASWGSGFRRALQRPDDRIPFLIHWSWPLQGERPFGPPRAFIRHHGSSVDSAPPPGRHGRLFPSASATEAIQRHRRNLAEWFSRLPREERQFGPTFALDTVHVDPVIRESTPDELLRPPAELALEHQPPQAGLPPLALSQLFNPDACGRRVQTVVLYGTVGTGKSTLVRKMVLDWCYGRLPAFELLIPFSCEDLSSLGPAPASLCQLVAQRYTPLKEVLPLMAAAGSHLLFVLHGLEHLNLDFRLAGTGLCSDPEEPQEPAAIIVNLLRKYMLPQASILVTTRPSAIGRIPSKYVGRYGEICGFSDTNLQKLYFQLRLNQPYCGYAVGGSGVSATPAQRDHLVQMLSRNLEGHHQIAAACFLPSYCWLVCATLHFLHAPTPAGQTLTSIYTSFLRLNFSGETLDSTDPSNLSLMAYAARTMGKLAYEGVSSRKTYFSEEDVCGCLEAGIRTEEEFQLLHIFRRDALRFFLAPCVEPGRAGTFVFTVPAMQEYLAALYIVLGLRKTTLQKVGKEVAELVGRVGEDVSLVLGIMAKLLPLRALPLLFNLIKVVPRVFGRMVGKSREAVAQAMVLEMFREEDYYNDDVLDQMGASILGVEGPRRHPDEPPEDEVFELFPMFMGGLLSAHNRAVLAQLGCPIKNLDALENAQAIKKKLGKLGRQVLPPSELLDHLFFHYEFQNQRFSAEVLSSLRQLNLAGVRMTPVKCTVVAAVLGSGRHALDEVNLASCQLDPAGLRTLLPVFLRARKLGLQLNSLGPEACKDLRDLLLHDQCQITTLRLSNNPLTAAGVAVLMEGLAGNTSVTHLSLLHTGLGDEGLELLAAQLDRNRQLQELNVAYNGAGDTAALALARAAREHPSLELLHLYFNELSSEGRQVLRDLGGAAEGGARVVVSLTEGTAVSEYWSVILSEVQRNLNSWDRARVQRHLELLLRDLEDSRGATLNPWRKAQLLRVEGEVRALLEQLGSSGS
UniProt P61916: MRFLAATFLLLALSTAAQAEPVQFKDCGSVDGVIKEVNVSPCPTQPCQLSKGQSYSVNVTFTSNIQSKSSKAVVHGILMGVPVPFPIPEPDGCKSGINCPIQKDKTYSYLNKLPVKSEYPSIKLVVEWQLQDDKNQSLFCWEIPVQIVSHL
UniProt Q9HAN9, whole entry, looked up: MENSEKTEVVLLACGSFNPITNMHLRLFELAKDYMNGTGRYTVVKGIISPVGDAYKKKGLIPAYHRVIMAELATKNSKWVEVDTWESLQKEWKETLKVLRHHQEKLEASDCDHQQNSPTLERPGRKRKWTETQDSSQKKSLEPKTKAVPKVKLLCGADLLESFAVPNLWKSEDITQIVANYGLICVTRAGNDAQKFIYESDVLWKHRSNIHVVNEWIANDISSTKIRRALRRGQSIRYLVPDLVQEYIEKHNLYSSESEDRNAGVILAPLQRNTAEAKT
UniProt O43847: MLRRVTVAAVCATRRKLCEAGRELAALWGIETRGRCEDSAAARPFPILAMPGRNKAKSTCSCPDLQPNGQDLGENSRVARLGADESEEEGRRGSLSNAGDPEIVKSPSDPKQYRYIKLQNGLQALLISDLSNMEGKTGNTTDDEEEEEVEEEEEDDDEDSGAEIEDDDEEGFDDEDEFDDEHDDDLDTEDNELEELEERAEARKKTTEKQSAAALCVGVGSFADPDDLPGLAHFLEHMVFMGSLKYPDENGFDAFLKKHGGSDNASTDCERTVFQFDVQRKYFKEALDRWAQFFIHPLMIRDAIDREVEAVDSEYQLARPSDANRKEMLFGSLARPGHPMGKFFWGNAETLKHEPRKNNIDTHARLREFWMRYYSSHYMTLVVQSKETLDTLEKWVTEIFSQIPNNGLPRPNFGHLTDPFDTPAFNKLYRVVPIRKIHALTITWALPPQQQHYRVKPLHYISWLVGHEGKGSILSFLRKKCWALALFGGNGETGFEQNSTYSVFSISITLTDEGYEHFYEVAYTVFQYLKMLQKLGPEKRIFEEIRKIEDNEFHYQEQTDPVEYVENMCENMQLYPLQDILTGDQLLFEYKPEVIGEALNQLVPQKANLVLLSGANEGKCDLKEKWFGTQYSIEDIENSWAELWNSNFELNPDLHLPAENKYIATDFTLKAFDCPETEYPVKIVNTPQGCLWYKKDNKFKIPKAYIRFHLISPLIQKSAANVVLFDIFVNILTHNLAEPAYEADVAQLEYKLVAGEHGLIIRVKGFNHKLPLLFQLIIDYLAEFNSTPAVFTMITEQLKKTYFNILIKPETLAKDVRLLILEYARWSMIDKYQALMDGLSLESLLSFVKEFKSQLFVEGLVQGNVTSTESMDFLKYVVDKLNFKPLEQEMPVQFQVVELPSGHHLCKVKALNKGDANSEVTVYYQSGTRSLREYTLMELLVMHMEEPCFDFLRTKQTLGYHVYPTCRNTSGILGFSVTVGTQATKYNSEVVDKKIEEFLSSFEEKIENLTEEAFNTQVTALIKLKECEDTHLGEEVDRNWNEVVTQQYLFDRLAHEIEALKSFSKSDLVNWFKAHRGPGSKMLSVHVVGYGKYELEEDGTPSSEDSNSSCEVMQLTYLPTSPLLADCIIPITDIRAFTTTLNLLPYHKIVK
UniProt Q8TCD5: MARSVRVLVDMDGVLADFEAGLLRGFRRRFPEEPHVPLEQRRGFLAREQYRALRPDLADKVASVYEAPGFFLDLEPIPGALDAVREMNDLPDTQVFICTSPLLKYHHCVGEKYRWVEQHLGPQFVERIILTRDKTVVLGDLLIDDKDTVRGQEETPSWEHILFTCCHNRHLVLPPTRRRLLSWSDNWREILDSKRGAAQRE
UniProt Q15738: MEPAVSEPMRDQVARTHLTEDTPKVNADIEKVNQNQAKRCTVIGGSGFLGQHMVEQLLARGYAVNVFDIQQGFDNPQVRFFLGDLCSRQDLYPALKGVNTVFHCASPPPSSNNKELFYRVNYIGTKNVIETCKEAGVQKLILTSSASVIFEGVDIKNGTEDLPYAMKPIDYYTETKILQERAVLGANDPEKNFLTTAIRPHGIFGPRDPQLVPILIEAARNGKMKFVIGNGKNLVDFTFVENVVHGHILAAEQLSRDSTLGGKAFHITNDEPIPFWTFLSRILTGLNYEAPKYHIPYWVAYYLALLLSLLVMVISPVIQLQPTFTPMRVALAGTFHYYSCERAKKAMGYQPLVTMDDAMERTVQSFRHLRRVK
UniProt Q86WQ0: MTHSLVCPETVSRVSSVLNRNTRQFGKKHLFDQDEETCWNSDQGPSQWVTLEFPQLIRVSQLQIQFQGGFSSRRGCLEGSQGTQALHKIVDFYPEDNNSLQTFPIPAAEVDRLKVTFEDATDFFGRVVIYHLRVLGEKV
UniProt Q96L73: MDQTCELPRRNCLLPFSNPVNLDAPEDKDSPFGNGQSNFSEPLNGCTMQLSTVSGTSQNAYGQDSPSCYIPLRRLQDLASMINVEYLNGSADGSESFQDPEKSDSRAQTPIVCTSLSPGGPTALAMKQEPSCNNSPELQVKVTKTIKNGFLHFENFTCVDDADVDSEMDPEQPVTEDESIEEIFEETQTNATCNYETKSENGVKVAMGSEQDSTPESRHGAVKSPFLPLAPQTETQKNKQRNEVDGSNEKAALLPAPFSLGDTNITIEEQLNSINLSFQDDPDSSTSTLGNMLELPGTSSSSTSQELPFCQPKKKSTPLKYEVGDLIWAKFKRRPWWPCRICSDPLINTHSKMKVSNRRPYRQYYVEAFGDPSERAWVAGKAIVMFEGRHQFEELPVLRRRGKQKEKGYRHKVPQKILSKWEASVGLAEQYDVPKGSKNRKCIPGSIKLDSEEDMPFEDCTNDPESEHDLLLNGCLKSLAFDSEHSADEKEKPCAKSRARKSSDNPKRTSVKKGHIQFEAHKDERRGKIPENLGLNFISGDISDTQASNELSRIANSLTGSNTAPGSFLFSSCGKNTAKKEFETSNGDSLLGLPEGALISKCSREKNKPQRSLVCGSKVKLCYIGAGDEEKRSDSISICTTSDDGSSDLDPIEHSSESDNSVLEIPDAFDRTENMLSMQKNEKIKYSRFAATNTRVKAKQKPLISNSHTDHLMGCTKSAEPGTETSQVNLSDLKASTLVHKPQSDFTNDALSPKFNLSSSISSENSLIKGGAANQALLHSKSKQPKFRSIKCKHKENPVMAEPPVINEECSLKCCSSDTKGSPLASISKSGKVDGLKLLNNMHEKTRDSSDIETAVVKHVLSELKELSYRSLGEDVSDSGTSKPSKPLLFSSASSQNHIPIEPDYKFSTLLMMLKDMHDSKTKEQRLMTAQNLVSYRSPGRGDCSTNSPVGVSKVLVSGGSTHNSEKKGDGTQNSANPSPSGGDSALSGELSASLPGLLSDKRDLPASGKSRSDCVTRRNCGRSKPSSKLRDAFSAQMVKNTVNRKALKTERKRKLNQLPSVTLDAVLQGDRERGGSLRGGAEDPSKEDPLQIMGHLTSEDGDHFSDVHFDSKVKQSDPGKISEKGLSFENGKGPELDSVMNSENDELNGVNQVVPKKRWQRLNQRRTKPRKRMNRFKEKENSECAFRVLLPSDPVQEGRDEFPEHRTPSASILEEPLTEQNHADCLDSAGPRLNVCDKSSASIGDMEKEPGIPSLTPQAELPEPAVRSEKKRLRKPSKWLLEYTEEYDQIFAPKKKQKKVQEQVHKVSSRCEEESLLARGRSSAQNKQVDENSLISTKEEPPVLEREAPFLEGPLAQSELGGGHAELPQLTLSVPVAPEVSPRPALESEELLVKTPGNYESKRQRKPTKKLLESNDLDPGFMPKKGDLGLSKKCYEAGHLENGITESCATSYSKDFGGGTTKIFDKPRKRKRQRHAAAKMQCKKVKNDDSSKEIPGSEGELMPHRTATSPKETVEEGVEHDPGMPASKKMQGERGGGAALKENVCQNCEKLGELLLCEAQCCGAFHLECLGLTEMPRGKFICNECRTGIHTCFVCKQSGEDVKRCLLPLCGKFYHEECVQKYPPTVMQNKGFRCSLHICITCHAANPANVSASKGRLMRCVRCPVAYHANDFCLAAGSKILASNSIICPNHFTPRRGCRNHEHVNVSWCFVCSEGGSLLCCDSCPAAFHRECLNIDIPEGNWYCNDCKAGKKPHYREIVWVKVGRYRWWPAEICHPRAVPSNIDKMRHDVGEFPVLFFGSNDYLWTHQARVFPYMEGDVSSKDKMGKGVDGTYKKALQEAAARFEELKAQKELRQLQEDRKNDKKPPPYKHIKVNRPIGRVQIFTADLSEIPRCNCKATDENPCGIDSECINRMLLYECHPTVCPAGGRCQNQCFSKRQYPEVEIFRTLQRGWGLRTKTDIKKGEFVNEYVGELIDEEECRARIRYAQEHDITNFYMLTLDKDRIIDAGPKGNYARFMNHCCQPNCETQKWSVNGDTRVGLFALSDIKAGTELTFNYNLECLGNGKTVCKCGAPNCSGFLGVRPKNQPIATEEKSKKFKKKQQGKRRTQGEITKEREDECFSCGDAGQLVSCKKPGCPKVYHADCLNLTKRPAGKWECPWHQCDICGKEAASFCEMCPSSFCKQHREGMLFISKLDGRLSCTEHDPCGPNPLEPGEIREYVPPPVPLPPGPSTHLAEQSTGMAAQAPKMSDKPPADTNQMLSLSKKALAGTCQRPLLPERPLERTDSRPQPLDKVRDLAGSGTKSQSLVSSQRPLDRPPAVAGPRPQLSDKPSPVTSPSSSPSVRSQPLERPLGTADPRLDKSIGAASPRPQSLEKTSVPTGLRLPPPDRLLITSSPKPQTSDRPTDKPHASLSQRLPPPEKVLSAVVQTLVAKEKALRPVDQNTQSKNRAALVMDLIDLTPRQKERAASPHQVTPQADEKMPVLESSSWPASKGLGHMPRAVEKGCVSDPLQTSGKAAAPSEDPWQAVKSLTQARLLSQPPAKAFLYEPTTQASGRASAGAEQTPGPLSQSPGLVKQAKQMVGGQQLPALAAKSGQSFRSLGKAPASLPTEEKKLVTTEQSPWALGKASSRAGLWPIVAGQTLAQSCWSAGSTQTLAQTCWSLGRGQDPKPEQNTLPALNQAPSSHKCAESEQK

compound: Cc1cc(ccc1-c1ccccc1)C(=O)N1CCCN(CC1)C(=O)CCl [compound 10]; assay: probe-labelled cysteine peptide fold change vs DMSO (competition) (log2 fold change); higher = less target engagement (more negative = stronger competition); settings: 10 µM; THP-1; incubation time: 4 h
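Further: competitive profiling in live THP-1 cells: cysteine peptides tagged with an iodoacetamide desthiobiotin (IA-DTB) probe, intensity after compound treatment relative to DMSO-treated cells.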

Which “probe-labelled cysteine peptide fold change” value does the source give for “NOL6_Q9H6R4_256+265_LHPCPPPDFFRPCR (UniProt Q9H6R4)” here?
Its value is 0.167.

For “NT5DC1_Q5TFE4_63_ELLNVTPEDWDFCCK (UniProt Q5TFE4)”, which “probe-labelled cysteine peptide fold change” value is on record?
Its value is 0.0256.

Which “probe-labelled cysteine peptide fold change” value does the source give for “NOTCH1_P46531_1425_FNGLLCHILDYSFGGGAGR (UniProt P46531)” here?
The value was -0.0522.

“NOTCH1_P46531_922_NCETDIDDCRPNPCHNGGSCTDGINTAFCDCLPGFR (UniProt P46531)” was tested. Which “probe-labelled cysteine peptide fold change” value did it give?
Its value is -0.181.

With “NPLOC4_Q8TAT6_403_DECLLPCK (UniProt Q8TAT6)” as the target, how does the “probe-labelled cysteine peptide fold change” value read?
Its value is -0.134.

“NLRX1_Q86UT6_779_DLRDLLLHDQCQITTLR (UniProt Q86UT6)” was tested. Which “probe-labelled cysteine peptide fold change” value did it give?
Its value is -0.0237.

“NOM1_Q5C9Z4_65_LAVEEFVHATSEGEAPGGCEGR (UniProt Q5C9Z4)” was tested. Which “probe-labelled cysteine peptide fold change” value did it give?
The value was 0.202.

Which “probe-labelled cysteine peptide fold change” value does the source give for “NSD2_O96028_1245_CGDGGQLVLCDR (UniProt O96028)” here?
Its value is -0.0443.

For “NSD2_O96028_899_WWPAEVCHPK (UniProt O96028)”, which “probe-labelled cysteine peptide fold change” value is on record?
Its value is -0.133.

How did the “probe-labelled cysteine peptide fold change” value turn out when “NSUN2_Q08J23_184_ILDMCAAPGSK (UniProt Q08J23)” was run?
Its value is -0.353.

“NPC2_P61916_93_AVVHGILMGVPVPFPIPEPDGCK (UniProt P61916)” was tested. Which “probe-labelled cysteine peptide fold change” value did it give?
The value was -0.0189.

For “NSUN2_Q08J23_673+678_YEPDSANPDALQCPIVLCGWR (UniProt Q08J23)”, which “probe-labelled cysteine peptide fold change” value is on record?
The value was 0.329.

With “NLRX1_Q86UT6_735_HALDEVNLASCQLDPAGLR (UniProt Q86UT6)” as the target, how does the “probe-labelled cysteine peptide fold change” value read?
Its value is 0.0144.

How did the “probe-labelled cysteine peptide fold change” value turn out when “NOL11_Q9H8H0_368_HSQDPGTHVVSHFVNWETPQGCGLGFQNSEQSR (UniProt Q9H8H0)” was run?
Its value is 0.131.

Which “probe-labelled cysteine peptide fold change” value does the source give for “NMNAT1_Q9HAN9_111_LEASDCDHQQNSPTLERPGR (UniProt Q9HAN9)” here?
The value was -0.477.

How did the “probe-labelled cysteine peptide fold change” value turn out when “NLRX1_Q86UT6_644_AVLAQLGCPIK (UniProt Q86UT6)” was run?
Its value is -0.0725.

With “NRDC_O43847_966_QTLGYHVYPTCR (UniProt O43847)” as the target, how does the “probe-labelled cysteine peptide fold change” value read?
Its value is 0.0654.

How did the “probe-labelled cysteine peptide fold change” value turn out when “NT5C_Q8TCD5_98_EMNDLPDTQVFICTSPLLK (UniProt Q8TCD5)” was run?
The value was -0.0432.

Which “probe-labelled cysteine peptide fold change” value does the source give for “NSDHL_Q15738_104_GVNTVFHCASPPPSSNNK (UniProt Q15738)” here?
The value was -0.0109.

How did the “probe-labelled cysteine peptide fold change” value turn out when “NT5C3A_Q9H0P0_73_VEEIICGLIK (UniProt Q9H0P0)” was run?
The value was -0.275.

How did the “probe-labelled cysteine peptide fold change” value turn out when “NRDC_O43847_690_IVNTPQGCLWYKK (UniProt O43847)” was run?
Its value is -0.0865.

same assay, conditions: 50 µM; THP-1; incubation time: 4 h

“NPC2_P61916_42+47_EVNVSPCPTQPCQLSK (UniProt P61916)” was tested. Which “probe-labelled cysteine peptide fold change” value did it give?
Its value is 0.0457.

Which “probe-labelled cysteine peptide fold change” value does the source give for “NOTCH2_Q04721_364_VASFSCMCPEGK (UniProt Q04721)” here?
The value was -0.066.

How did the “probe-labelled cysteine peptide fold change” value turn out when “NR2C2AP_Q86WQ0_76_RGCLEGSQGTQALHK (UniProt Q86WQ0)” was run?
Its value is 0.174.

How did the “probe-labelled cysteine peptide fold change” value turn out when “NSD3_Q9BZ95_495_CNMSPVVK (UniProt Q9BZ95)” was run?
Its value is -0.465.

With “NSD2_O96028_44_ECSVFLSK (UniProt O96028)” as the target, how does the “probe-labelled cysteine peptide fold change” value read?
The value was -0.264.

Which “probe-labelled cysteine peptide fold change” value does the source give for “NMI_Q13287_230_EYPLYINQTCHR (UniProt Q13287)” here?
Its value is 0.0847.

How did the “probe-labelled cysteine peptide fold change” value turn out when “NRDC_O43847_674_AFDCPETEYPVK (UniProt O43847)” was run?
The value was 0.101.

“NSUN2_Q08J23_502_DGVCGPPPSK (UniProt Q08J23)” was tested. Which “probe-labelled cysteine peptide fold change” value did it give?
Its value is -0.0804.

With “NOL6_Q9H6R4_1034_QAVDSPAASFCR (UniProt Q9H6R4)” as the target, how does the “probe-labelled cysteine peptide fold change” value read?
The value was -0.157.

Which “probe-labelled cysteine peptide fold change” value does the source give for “NSDHL_Q15738_86_FFLGDLCSR (UniProt Q15738)” here?
Its value is 0.0788.

Which “probe-labelled cysteine peptide fold change” value does the source give for “NPLOC4_Q8TAT6_355_HPNMCR (UniProt Q8TAT6)” here?
Its value is -0.0444.

“NTHL1_P78549_118_DAPVDHLGTEHCYDSSAPPK (UniProt P78549)” was tested. Which “probe-labelled cysteine peptide fold change” value did it give?
Its value is -0.825.

How did the “probe-labelled cysteine peptide fold change” value turn out when “NOL6_Q9H6R4_739_LDKPCPAYVEPMTVVCHLEGSGQWPQDAEAVQR (UniProt Q9H6R4)” was run?
The value was 0.111.

For “NSD1_Q96L73_2077_CGAPNCSGFLGVRPK (UniProt Q96L73)”, which “probe-labelled cysteine peptide fold change” value is on record?
The value was -0.475.

How did the “probe-labelled cysteine peptide fold change” value turn out when “NLRX1_Q86UT6_767_LGLQLNSLGPEACK (UniProt Q86UT6)” was run?
The value was 0.101.

“NOTCH2_Q04721_264_NIDDCPNHR (UniProt Q04721)” was tested. Which “probe-labelled cysteine peptide fold change” value did it give?
The value was 0.126.

“NSD1_Q96L73_2072_CGAPNCSGFLGVRPK (UniProt Q96L73)” was tested. Which “probe-labelled cysteine peptide fold change” value did it give?
The value was 0.0106.

How did the “probe-labelled cysteine peptide fold change” value turn out when “NOL6_Q9H6R4_256+265_LHPCPPPDFFRPCR (UniProt Q9H6R4)” was run?
The value was -0.601.

“NT5DC1_Q5TFE4_63_ELLNVTPEDWDFCCK (UniProt Q5TFE4)” was tested. Which “probe-labelled cysteine peptide fold change” value did it give?
The value was -0.132.

How did the “probe-labelled cysteine peptide fold change” value turn out when “NOTCH1_P46531_1425_FNGLLCHILDYSFGGGAGR (UniProt P46531)” was run?
Its value is 0.0723.

How did the “probe-labelled cysteine peptide fold change” value turn out when “NOTCH1_P46531_922_NCETDIDDCRPNPCHNGGSCTDGINTAFCDCLPGFR (UniProt P46531)” was run?
Its value is 0.000888.

How did the “probe-labelled cysteine peptide fold change” value turn out when “NPLOC4_Q8TAT6_403_DECLLPCK (UniProt Q8TAT6)” was run?
Its value is 0.0942.

“NLRX1_Q86UT6_779_DLRDLLLHDQCQITTLR (UniProt Q86UT6)” was tested. Which “probe-labelled cysteine peptide fold change” value did it give?
Its value is -0.121.

With “NOM1_Q5C9Z4_65_LAVEEFVHATSEGEAPGGCEGR (UniProt Q5C9Z4)” as the target, how does the “probe-labelled cysteine peptide fold change” value read?
Its value is -0.0786.

For “NSD2_O96028_1245_CGDGGQLVLCDR (UniProt O96028)”, which “probe-labelled cysteine peptide fold change” value is on record?
The value was -0.318.

How did the “probe-labelled cysteine peptide fold change” value turn out when “NSD2_O96028_899_WWPAEVCHPK (UniProt O96028)” was run?
The value was -0.0255.

“NSUN2_Q08J23_184_ILDMCAAPGSK (UniProt Q08J23)” was tested. Which “probe-labelled cysteine peptide fold change” value did it give?
The value was -0.48.

How did the “probe-labelled cysteine peptide fold change” value turn out when “NPC2_P61916_93_AVVHGILMGVPVPFPIPEPDGCK (UniProt P61916)” was run?
The value was 0.207.

For “NSUN2_Q08J23_673+678_YEPDSANPDALQCPIVLCGWR (UniProt Q08J23)”, which “probe-labelled cysteine peptide fold change” value is on record?
The value was -0.0256.

How did the “probe-labelled cysteine peptide fold change” value turn out when “NLRX1_Q86UT6_735_HALDEVNLASCQLDPAGLR (UniProt Q86UT6)” was run?
The value was 0.118.

Which “probe-labelled cysteine peptide fold change” value does the source give for “NOL11_Q9H8H0_368_HSQDPGTHVVSHFVNWETPQGCGLGFQNSEQSR (UniProt Q9H8H0)” here?
Its value is -0.228.

For “NMNAT1_Q9HAN9_111_LEASDCDHQQNSPTLERPGR (UniProt Q9HAN9)”, which “probe-labelled cysteine peptide fold change” value is on record?
Its value is -0.0623.

For “NLRX1_Q86UT6_644_AVLAQLGCPIK (UniProt Q86UT6)”, which “probe-labelled cysteine peptide fold change” value is on record?
Its value is -0.075.

For “NRDC_O43847_966_QTLGYHVYPTCR (UniProt O43847)”, which “probe-labelled cysteine peptide fold change” value is on record?
The value was 0.0354.

For “NT5C_Q8TCD5_98_EMNDLPDTQVFICTSPLLK (UniProt Q8TCD5)”, which “probe-labelled cysteine peptide fold change” value is on record?
Its value is -0.082.

“NSDHL_Q15738_104_GVNTVFHCASPPPSSNNK (UniProt Q15738)” was tested. Which “probe-labelled cysteine peptide fold change” value did it give?
The value was -0.00955.

Which “probe-labelled cysteine peptide fold change” value does the source give for “NT5C3A_Q9H0P0_73_VEEIICGLIK (UniProt Q9H0P0)” here?
The value was 0.00976.

“NRDC_O43847_690_IVNTPQGCLWYKK (UniProt O43847)” was tested. Which “probe-labelled cysteine peptide fold change” value did it give?
Its value is -0.413.
